These are yes or no findings as the source states them, for the method shown. Binding seen in cells or lysates may run through a third protein. These calls come from enrichment with a bait or labelling near it, and not all partners need be listed.
Biological target: Huntingtin-interacting protein 1 (rat) (rat (endogenous in rat FLS))
Assay: affinity purification with mass spectrometry; rabbit anti-rat-HIP1 antibody (20 μg per sample) on Dynabeads M-270 Epoxy; total lysates of rat FLS (one DA and one R6 cell line, each in triplicate), starved 24 h, then PDGFβ 100 ng/mL 30 min; lysis in water with protease and phosphatase inhibitors by three freeze-thaw cycles; elution with 8 M urea, LysC and trypsin, nano-LC-MS/MS, label-free quantitation

Row | Binder | binding
1 | PPP4C (protein, UniProt Q5BJ92 1-307) MAEISDLDRQIEQLRRCELIKESEVKALCAKAREILVEESNVQRVDSPVTVCGDIHGQFYDLKELFRVGGDVPETNYLFMGDFVDRGFYSVETFLLLLALKVRYPDRITLIRGNHESRQITQVYGFYDECLRKYGSVTVWRYCTEIFDYLSLSAIIDGKIFCVHGGLSPSIQTLDQIRTIDRKQEVPHDGPMCDLLWSDPEDTTGWGVSPRGAGYLFGSDVVAQFNAANDIDMTCRAHQLVMEGYKWHFNETVLTVWSAPNYCYRCGNVAAILELDEHLQKDFIIFEAAPQETRGIPSKKPVADYFL | binds
2 | PSMD1 (protein, UniProt O88761 1-953) MITSAAGIISLLDEEEPQLKEFALHKLNAVVNDFWAEISESVDKIEVLYEDEGFRSRQFAALVASKVFYHLGAFEESLNYALGAGDLFNVNDNSEYVETIIAKCIDHYTKQCVENADLPEGEKKPIDQRLEGIVNKMFQRCLDDHKYKQAIGIALETRRLDVFEKTILESNDVPGMLAYSLKLCMSLMQNKQFRNKVLRVLVKIYMNLEKPDFINVCQCLIFLDDTQAVSDILEKLVKEDNLLMAYQICFDLYESASQQFLSSVIQNLRTVGTPIASVPGSTNTGTVPGPEKDSDSMETEEKTAGAVAGKTPDASPEPKDQTLKMIKILSGEMAIELHLQFLIRNNNTDLMILKNTKDAVRNSVCHTATVIANSFMHCGTTSDQFLRDNLEWLARATNWAKFTATASLGVIHKGHEKEALQLMATYLPKDTSPGSAYQEGGGLYALGLIHANHGGDIIDYLLNQLKNASNDIVRHGGSLGLGLAAMGTARQDVYDLLKTNLYQDDAVTGEAAGLALGLVMLGSKNTQAIEDMVGYAQETQHEKILRGLAVGIALVMYGRMEEADALIESLCRDKDPILRRSGMYTVAMAYCGSGNNKAIRRLLHVAVSDVNDDVRRAAVESLGFILFRTPEQCPSVVSLLSESYNPHVRYGAAMALGVCCAGTGNKEAINLLEPMTNDPVNYVRQGALIASALIMIQQTEITCPKVNQFRQLYSKVINDKHDDVMAKFGAILAQGILDAGGHNVTISLQSRTGHTHMPSVVGVLVFTQFWFWFPLSHFLSLAYTPTCIIGLNKDLKMPKVQYKSNCKPSTFAYPAPLEVPKEKEKEKVSTAVLSITAKAKKKEKEKEKKEEEKMEVDEAEKKEEKEKKKEPEPNFQLLDNPARVMPAQLKVLSMTETCRYQPFKPLSIGGIIILKDTSEDIEELVEPVAAHGPKIEEEEQEPEPPEPFEYIDD | binds
